Experimental data: PubChem BioAssay (NCATS)
The inconclusive results got no clear call from the source; some entries with a clear call stand among them for comparison. Where a call stands in place of a potency, no number is given. For part of these data: Where the call is inconclusive, the potency comes from a doubtful curve fit. Activity calls are given as the source filed them. Unless noted, calls come from the whole dose curve; as a rule, active = well fitted curve in the direction sought with a large enough effect; inconclusive = small, poorly fitted or top-dose-only effect, or another doubt; inactive = no such curve, though single readings can be large; an effect the other way counts as inactive or inconclusive.

Sequences of proteins named here, by UniProt entry; tags and fusion partners are left off. A change or cut given only in a name is not applied to a line headed by its entry.
UniProt P63096, whole entry, looked up: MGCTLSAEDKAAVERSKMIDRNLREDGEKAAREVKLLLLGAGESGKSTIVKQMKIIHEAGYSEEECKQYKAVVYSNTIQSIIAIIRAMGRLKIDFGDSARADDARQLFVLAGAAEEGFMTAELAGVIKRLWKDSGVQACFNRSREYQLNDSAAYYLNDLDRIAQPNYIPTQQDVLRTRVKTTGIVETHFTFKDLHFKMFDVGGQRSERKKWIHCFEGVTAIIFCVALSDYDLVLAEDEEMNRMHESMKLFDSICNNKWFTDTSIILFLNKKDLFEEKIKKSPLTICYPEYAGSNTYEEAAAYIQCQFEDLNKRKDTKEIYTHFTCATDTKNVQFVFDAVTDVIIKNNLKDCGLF
UniProt O15648: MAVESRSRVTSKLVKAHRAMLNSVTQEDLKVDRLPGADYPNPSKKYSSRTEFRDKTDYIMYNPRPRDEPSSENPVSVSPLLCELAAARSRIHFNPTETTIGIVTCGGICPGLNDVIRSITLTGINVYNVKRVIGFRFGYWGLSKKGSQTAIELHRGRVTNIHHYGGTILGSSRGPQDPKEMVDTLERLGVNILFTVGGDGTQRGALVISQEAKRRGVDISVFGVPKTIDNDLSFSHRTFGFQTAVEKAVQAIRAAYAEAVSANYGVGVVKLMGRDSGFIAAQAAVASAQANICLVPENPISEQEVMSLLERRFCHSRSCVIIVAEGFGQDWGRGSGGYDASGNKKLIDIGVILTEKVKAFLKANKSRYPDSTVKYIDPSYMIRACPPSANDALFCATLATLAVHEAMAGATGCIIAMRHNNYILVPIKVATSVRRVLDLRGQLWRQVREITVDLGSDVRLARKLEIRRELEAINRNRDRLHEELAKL
UniProt Q96QE3: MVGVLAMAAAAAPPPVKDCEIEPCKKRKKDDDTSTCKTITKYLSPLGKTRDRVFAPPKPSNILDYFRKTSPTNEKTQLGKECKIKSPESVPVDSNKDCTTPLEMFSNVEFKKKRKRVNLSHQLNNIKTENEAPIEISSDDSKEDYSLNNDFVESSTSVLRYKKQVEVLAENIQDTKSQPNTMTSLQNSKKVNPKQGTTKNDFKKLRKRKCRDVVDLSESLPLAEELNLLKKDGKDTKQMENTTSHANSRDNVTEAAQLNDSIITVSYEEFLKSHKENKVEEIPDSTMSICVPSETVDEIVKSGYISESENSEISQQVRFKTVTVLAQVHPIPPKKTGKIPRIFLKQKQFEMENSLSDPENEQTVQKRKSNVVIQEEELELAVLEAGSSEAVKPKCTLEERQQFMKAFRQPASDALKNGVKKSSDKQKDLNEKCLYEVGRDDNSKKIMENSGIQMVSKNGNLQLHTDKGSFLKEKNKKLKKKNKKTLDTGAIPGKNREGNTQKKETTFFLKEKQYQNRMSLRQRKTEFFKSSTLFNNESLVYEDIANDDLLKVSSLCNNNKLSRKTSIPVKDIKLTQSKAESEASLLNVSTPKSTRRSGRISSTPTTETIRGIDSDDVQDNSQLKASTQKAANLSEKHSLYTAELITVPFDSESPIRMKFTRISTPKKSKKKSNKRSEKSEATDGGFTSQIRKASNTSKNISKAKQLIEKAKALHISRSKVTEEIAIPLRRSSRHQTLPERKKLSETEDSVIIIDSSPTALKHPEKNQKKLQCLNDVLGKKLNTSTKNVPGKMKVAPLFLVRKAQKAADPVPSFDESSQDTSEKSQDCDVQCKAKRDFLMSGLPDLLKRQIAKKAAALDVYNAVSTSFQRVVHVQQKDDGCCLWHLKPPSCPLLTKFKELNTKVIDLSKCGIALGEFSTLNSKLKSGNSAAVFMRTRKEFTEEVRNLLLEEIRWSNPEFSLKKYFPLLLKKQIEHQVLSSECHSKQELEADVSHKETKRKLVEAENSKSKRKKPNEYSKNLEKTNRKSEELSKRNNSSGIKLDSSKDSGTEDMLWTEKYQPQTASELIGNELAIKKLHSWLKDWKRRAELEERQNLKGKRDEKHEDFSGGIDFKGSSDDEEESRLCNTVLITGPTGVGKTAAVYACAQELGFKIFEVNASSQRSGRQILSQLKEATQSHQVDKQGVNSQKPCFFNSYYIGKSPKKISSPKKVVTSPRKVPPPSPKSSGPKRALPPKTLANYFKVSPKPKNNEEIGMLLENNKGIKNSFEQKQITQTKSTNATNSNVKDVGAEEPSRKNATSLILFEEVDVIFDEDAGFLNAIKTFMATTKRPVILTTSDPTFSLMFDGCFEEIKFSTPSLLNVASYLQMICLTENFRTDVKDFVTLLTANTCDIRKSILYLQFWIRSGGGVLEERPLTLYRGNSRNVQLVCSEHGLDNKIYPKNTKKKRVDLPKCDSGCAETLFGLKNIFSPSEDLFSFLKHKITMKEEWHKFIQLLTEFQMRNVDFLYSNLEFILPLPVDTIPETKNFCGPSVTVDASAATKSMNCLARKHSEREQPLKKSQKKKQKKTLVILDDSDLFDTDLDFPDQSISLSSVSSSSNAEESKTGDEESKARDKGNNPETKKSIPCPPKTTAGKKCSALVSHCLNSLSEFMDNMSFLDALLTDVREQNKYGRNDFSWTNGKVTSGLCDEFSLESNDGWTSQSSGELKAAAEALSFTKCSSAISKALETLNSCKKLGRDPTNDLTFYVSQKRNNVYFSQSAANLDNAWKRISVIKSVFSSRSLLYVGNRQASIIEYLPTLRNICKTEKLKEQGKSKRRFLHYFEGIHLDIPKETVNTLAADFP
UniProt P15289: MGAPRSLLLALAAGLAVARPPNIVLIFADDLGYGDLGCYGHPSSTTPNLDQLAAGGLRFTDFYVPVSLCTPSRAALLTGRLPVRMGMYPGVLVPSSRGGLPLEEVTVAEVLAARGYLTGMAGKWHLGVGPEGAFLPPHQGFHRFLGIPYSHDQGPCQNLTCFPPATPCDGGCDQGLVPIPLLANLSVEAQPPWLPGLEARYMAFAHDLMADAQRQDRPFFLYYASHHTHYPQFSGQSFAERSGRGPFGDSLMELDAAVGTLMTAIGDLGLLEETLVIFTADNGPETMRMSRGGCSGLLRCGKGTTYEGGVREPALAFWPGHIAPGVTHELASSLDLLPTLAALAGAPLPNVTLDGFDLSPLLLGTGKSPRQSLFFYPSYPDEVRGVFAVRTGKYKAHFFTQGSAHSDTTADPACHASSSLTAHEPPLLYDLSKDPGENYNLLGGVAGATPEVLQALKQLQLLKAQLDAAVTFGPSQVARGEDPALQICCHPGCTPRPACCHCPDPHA
UniProt P00784: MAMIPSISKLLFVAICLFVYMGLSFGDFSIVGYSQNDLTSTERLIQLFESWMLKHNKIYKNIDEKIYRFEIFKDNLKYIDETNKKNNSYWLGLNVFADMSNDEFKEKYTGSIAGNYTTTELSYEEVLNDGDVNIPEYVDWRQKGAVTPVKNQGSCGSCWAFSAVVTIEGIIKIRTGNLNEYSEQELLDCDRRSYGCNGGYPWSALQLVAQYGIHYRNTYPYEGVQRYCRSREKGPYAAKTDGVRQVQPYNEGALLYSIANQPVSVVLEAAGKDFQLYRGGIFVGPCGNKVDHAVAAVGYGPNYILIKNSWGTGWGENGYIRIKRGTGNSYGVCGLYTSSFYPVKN

Legend:
[1] = biological target: Guanine nucleotide-binding protein G(i) subunit alpha-1 (Homo sapiens) (UniProt P63096); experiment: qHTS Assay for Inhibitors of RGS12 GoLoco Motif Activity (Green Fluorophore) (AID 879);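 note: negative values mean loss of peptide binding seen as reduced polarization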
In short: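 Fluorescence polarization assay: 50 nM Gαi1 with 10 nM FITC-labeled RGS12 GoLoco peptide in 10 mM Tris pH 7.5, 150 mM NaCl, 0.1 mM GDP, 0.05% NP40, 10 min at room temperature with compound.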

[2] = qHTS Assay for Identification of Small Molecule Antagonists for NFkB Signaling Pathway (AID 895; active = well fitted inhibition curve with a large enough effect in the signal ratio, with a control signal flat, not every such curve was filed as active; inconclusive = small, poorly fitted or top-dose-only effect, or effect the other way, or a change in a side signal; the % refers to the signal ratio; note: potency is the fitted concentration of half-maximal effect); conditions: NFkB beta-lactamase reporter cells, FRET ratio 460/530, stimulated with 10 pM TNF alpha; activity change, negative = inhibition: at 38.3 µM (top of the series)
In short: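 Beta-lactamase reporter read-out (460 and 530 nm emission ratio, 405 nm excitation, 2 hrs substrate loading RT) after 5 hr stimulation with 10 pM TNF alpha in compound-treated NFkB-bla ME-180 cells in low-serum medium.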

[3] = qHTS Assay for Identification of Small Molecule Agonists for Thrombopoietin (TPO) Signaling Pathway (AID 917)
In short: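 We measured Glycoprotein IIb promoter–luciferase output in IL-3-starved Ba/F3 murine cells expressing the human TPO receptor after 24 hrs at 37 C with compounds and 26 pM TPO.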

[4] = qHTS Assay for Identification of Small Molecule Antagonists for Thrombopoietin (TPO) Signaling Pathway (AID 918); conditions: TPO-dependent cell signaling reporter, antagonist mode; activity change, negative = inhibition: at 38.5 µM (top of the series)
In short: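 Ba/F3 (murine, hTPO-R, GPIIb-luc reporter); overnight IL-3 withdrawal; cpd + TPO 26 pM final (EC50); 24 h 37 C/5% CO2; Steadylite luminescence after 10 min RT.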

[5] = biological target: Endonuclease 4 (Escherichia coli (strain K12)) (UniProt P0A6C1); experiment: Counterscreen for APE1 Inhibitors: qHTS Validation Assay for Inhibitors of Endonuclease IV (AID 1708); note: potency is the fitted concentration of half-maximal effect
In short: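 qHTS concentration-response format; LOPAC1280 tested under APE1-screen conditions. 2 nM enzyme, 15 min compound preincubation at RT, then 50 nM TAMRA/BHQ-2 abasic substrate; kinetic fluorescence read, three reads at 60 s intervals.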

[6] = qHTS for differential inhibitors of proliferation of Plasmodium falciparum line 3D7 (AID 1876);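 note: parasite growth measured after three days of culture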
[7] = qHTS for differential inhibitors of proliferation of Plasmodium falciparum line W2 (AID 1883); conditions: Potency: Plasmodium falciparum W2 proliferation inhibition;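 note: parasites grown with compound for 72 h before lysis and staining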
[8] = biological target: ATP-dependent 6-phosphofructokinase (Trypanosoma brucei brucei) (UniProt O15648); experiment: qHTS Validation Assay to Find Inhibitors of T. brucei phosphofructokinase (AID 485368); conditions: activity change, negative = inhibition: at 57.5 µM (top of the series)
In short: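 Enzyme reaction in triethanolamine buffer pH 8.0 with 5 mM MgCl2, 0.01% Tween20 and 0.1% BSA; PFK 1.25 nM, F6P 0.5 mM, ATP 0.1 mM, 45 min RT. ADP quantified by ADP-Glo.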

[9] = biological target: ATPase family AAA domain-containing protein 5 (Homo sapiens) (UniProt Q96QE3); experiment: Validation screen for small molecules that inhibit ELG1-dependent DNA repair in human embryonic kidney (HEK293T) cells expressing luciferase-tagged ELG1 (AID 493107); conditions: HEK293T ELG1-luciferase level, luminescence, 5-fluorouridine co-treatment, 16 h; activity change, negative = decrease: at 46.1 µM (top of the series); note: potency is the fitted concentration of half-maximal effect; nearly all actives have a fitted effect of over 70% in size
In short: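 Luminescence from ONE-Glo, developed 30 min at room temperature, served as read-out of ELG1-luciferase levels. Beforehand, reporter HEK293T cells received 5-fluorouridine plus test compound for 16 hr at 37 °C.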

[10] = HTS Assay for Allosteric Antagonists of the Human D2 Dopamine Receptor: Hit Validation in HTRF (AID 624455); conditions: Cells stably expressing D1 dopamine receptor, inhibition mode;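 note: stable D1 dopamine receptor cell line scored for blocking the D1 response; potency is the fitted concentration of half-maximal effect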
In short: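 First, antagonism was screened by calcium flux in a force-coupled, inducible Hek293 Trex D2 line challenged with EC80 dopamine. Hits then went into an HTRF assay in cells stably expressing D1, testing inhibition of the D1 response.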

[11] = biological target: Arylsulfatase A (Homo sapiens) (UniProt P15289); experiment: qHTS screen for enhancers of Arylsulfatase A (ASA1): LOPAC Validation Assay (AID 720538); conditions: activity change, positive = activation: at 57.5 µM (top of the series); note: potency is the fitted concentration of half-maximal effect
In short: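 First, ASA-I179S fibroblasts from an MLD patient adhered for 6 hrs. Next, compounds were added for 48h. Then pNCS substrate (0.5mM final) with lysis buffer reacted 14h at room temperature before NaOH stop and fluorescence measurement.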

[12] = qHTS of pediatric cancer cell lines to identify multiple opportunities for drug repurposing: Primary screen for NB1643 cells (AID 1347099); conditions: NB1643 neuroblastoma viability, CellTiter-Glo luminescence, 48 h; activity change, negative = cytotoxic: at 46 µM (top of the series); note: nearly all actives have a fitted effect of over 50% in size
In short: (§1)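 500-1,000 cells/well; 5 h pre-incubation 37 °C/5% CO2; compound pinned; 48 h; CellTiter-Glo, 15 min RT; luminescence. MIPE 11-pt from 0.78 nM, NPC 8-pt from 0.59 nM final. Bortezomib 2.3 µM final as positive control.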

[13] = qHTS of pediatric cancer cell lines to identify multiple opportunities for drug repurposing: Primary screen for MG 63 (6-TG R) cells (AID 1347105); conditions: MG 63 (6-TG R) viability, CellTiter-Glo, 48 h; activity change, negative = cytotoxic: at 46 µM (top of the series); note: nearly all actives have a fitted effect of over 50% in size
In short: as §1

[14] = test system: Zika virus NS2B-NS3 protease; experiment: Primary screen GU AMC qHTS for Zika virus inhibitors (AID 1347154); note: nearly all actives have a fitted effect of over 70% in size
In short: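 Fluorogenic AMC-substrate cleavage by noncovalent NS2B-NS3 protease complex (25 nM, pH 8.0 Tris buffer with Tween 20) followed for 15 minutes at room temperature (~20% conversion). Percent inhibition from ex340/em450 signal change, fitted by 4-parameter Hill equation.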

[15] = Primary qHTS for small molecule stabilizers of the endoplasmic reticulum resident proteome: Secreted ER Calcium Modulated Protein (SERCaMP) assay (AID 1508630); conditions: SH-SY5Y GLuc-SERCaMP secretion, thapsigargin, luminescence; activity change, negative = inhibition: at 38.4 µM (top of the series) unless noted; note: potency is the fitted concentration of half-maximal effect
In short: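 GLuc-SERCaMP-expressing SH-SY5Y cells, pretreated 16 h with compound, are challenged with thapsigargin to empty ER calcium stores; after 4 h, coelenterazine is added directly to the medium and luminescence is imaged.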

[16] = biological target: Papain (Carica papaya) (UniProt P00784); experiment: Primary qHTS assay for inhibitors of the protease papain (AID 1645873);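 note: papain turnover of Z-FR-AMC read as the AMC fluorescence gain over 10 min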
[17] = Primary redox qHTS assay for identification of artifact compounds. (AID 1845223)
In short: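 Amplex Red (25 uM) and HRP (250 mU/mL) in HBSS, with compounds for 15 min, then 250 uM DTT for 30 min, room temperature, dark. Fluorescence 525/598 nm read; normalized to DMSO and 10 uM DA3003; Hill fit.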

[18] = test system: PA-1; experiment: Primary qHTS to identify gynecologic anti-cancer compounds using libraries of approved drugs and bioactive compounds (AID 1345084); conditions: Gynecologic cancer cell panel viability, ATPlite luminescence, 48 h; series mostly up to 57.5 µM; note: nearly all actives have a fitted effect of over 55% in size
In short: (§2)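 In this quantitative HTS, cell killing is estimated from loss of ATP-dependent luciferase light. Cells see five compound concentrations over a 48 h exposure.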

[19] = test system: SKOV3; experiment: as above; conditions: Gynecologic cancer cell panel viability, ATPlite luminescence, 48 h; series mostly up to 57.5 µM
In short: as §2

[20] = test system: Tov112D; experiment: as above; conditions: Gynecologic cancer cell panel viability, ATPlite luminescence, 48 h; series mostly up to 57.5 µM
In short: as §2

[21] = Drug repurposing screens with cells derived from glioblastoma tumor samples (AID 1345199); conditions: GBM patient neurospheres viability, ATP luminescence, 48 h; Potency: tumour line A unless noted; activity, negative = cell killing: at 46 µM (top of the series), tumour line A unless noted; note: nearly all actives have a fitted effect of over 40% in size
In short: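 Four patient lines of CD133+ GBM neurospheres were screened at several concentrations; hits were retested in those lines plus three slower-growing GBM lines, using 48-hour treatment and ATP-based viability.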

[22] = test system: CP194; experiment: qHTS profiling for inhibitors of Plasmodium falciparum proliferation (AID 504749); note: nearly all actives have a fitted effect of over 60% in size; conditions: P. falciparum in erythrocytes, SYBR Green DNA, 72 h; series mostly up to 28.7 µM
In short: (§3)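 Infected RBCs, 0.3% parasitemia/2.5% Hct final; cpd 72 h, 37 C, 5% CO2; lysis buffer with saponin/triton/SYBR Green I, o/n RT dark; FI 485/535; norm. to artemisinin (0.29 uM) and DMSO.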

[23] = test system: CP265; experiment: as above; conditions: P. falciparum in erythrocytes, SYBR Green DNA, 72 h; series mostly up to 28.7 µM
In short: as §3

[24] = test system: CP325; experiment: as above; conditions: P. falciparum in erythrocytes, SYBR Green DNA, 72 h; series mostly up to 28.7 µM
In short: as §3

[25] = test system: ICS; experiment: as above; conditions: P. falciparum in erythrocytes, SYBR Green DNA, 72 h; series mostly up to 28.7 µM
In short: as §3

[26] = test system: TAB165; experiment: as above; conditions: P. falciparum in erythrocytes, SYBR Green DNA, 72 h; series mostly up to 28.7 µM
In short: as §3

[27] = test system: W2; experiment: as above; conditions: P. falciparum in erythrocytes, SYBR Green DNA, 72 h; activity, negative = inhibition: at 28.7 µM (top of the series)
In short: as §3

Q: Which Potency [1] does the source give for CC(=O)CCCCn1c(=O)c2c(ncn2C)n(C)c1=O here?
A: inactive

Q: And the Potency [2]?
A: inconclusive: 28.2 µM [inhibitor, single point]

Q: And the Potency [3]?
A: inactive

Q: And the activity change, negative = inhibition [4]?
A: inconclusive: -29.6% [phenotype inactive]

Q: What about the Potency [5] of the same compound?
A: inconclusive: 50.1 µM [inhibitor, partial curve]

Q: What about the Potency [6] of the same compound?
A: inactive

Q: And the Potency [7]?
A: inactive

Q: And the Potency [8]?
A: inactive

Q: What about the Potency [9] of the same compound?
A: inconclusive: 6.51 µM [inhibitor, single point]

Q: What about the Potency [10] of the same compound?
A: inconclusive: 9.2 µM [inhibitor, single point]

Q: What about the Potency [11] of the same compound?
A: inconclusive: 8.49 µM [activator, single point]

Q: What about the Potency [12] of the same compound?
A: inactive

Q: And the Potency [13]?
A: inactive

Q: What about the Potency [14] of the same compound?
A: inactive

Q: And the Potency [15]?
A: inconclusive: 2.24 µM [inhibitor, full curve, poor fit]

Q: What about the Potency [16] of the same compound?
A: inactive

Q: And the Potency [17]?
A: inactive

Q: And the Potency [18]?
A: inactive

Q: And the Potency [19]?
A: inactive

Q: What about the Potency [20] of the same compound?
A: inactive

Q: And the Potency [21]?
A: inactive

Q: What about the Potency [22] of the same compound?
A: inactive

Q: What about the Potency [23] of the same compound?
A: inactive

Q: What about the Potency [24] of the same compound?
A: inactive

Q: And the Potency [25]?
A: inactive

Q: What about the Potency [26] of the same compound?
A: inactive

Q: And the Potency [27]?
A: inactive
